In assay [1] the target is IgG1_001. The experiment in a line: SPR (Biacore T200, 37 C), tool antibody captured on mouse anti-human Fc. In general terms: SPR reads the build-up and loss of mass on a sensor chip optically.
Assay [2] deals with DualAE05-SG1201. Described as above.

No constants are given. Whether binding was seen depends on the method and setting. Some binding calls cover weakened binding; strength is not graded here.

B1: FAB0133hh (antibody, V domains shown)
VH: QSLEESGGRLVTPGTPLTLTCTASGFSLSTYYMNWVRQAPGKGLEWIGTITIDGTAYYASWAKGRFTISRTSTTVDLKAASPTTEDTATYFCARYDGDIWGPGTLVTVSS
VL: DVVMTQTPASVSEPVGGTVTIKCQASQSISTALAWYQQKPGQPPKLLIHGASILESGVPSRFKGSGSGTEFTLTISDLECADVATYYCQCTYYGISYGNAFGGGTKVEIK
For the molecule B1, the binding entry in assay [1] and in assay [2] was “binds” in each case.

Values taken from patent US20230121511A1.
